Assay results from the supplement of paper PMC10849652.
The other results are listed elsewhere or left out.

Protein sequences, listed by entry. Tags and fused reporters are not part of them. Lines headed by an entry give the natural chain unless they say otherwise; changes in a name come on top.
UniProt Q9BZM6: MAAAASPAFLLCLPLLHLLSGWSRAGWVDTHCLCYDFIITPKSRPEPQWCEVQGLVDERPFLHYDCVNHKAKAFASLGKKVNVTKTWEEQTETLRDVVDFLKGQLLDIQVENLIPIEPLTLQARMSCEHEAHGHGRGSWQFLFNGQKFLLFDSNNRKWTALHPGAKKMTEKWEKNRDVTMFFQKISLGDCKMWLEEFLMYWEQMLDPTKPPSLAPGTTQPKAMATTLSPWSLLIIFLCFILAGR
UniProt Q9BRU9: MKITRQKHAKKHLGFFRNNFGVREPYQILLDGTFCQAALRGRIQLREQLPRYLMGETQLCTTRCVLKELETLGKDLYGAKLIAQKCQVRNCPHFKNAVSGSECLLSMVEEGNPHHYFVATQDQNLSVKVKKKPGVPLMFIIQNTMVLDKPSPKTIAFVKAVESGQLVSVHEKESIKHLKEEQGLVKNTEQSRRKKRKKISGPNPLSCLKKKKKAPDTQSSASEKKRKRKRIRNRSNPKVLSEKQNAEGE
UniProt P61960, whole entry, looked up: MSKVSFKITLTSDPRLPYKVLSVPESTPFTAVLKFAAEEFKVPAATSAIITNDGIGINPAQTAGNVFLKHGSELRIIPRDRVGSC
UniProt O75317, whole entry, looked up: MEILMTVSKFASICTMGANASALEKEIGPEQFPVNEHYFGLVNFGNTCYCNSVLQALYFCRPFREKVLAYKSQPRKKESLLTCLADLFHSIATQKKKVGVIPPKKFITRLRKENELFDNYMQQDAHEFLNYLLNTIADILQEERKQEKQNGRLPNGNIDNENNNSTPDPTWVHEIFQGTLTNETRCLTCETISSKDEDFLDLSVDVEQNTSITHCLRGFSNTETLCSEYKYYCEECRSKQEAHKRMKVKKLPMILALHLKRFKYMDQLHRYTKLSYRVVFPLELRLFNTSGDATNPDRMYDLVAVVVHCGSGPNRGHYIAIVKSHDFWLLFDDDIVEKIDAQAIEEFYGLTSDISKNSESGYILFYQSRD
UniProt Q15836, whole entry, looked up: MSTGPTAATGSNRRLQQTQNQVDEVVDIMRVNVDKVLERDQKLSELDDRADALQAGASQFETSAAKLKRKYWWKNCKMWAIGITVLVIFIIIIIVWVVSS
UniProt O14957: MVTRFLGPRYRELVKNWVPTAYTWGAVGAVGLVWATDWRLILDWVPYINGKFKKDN
UniProt Q13107: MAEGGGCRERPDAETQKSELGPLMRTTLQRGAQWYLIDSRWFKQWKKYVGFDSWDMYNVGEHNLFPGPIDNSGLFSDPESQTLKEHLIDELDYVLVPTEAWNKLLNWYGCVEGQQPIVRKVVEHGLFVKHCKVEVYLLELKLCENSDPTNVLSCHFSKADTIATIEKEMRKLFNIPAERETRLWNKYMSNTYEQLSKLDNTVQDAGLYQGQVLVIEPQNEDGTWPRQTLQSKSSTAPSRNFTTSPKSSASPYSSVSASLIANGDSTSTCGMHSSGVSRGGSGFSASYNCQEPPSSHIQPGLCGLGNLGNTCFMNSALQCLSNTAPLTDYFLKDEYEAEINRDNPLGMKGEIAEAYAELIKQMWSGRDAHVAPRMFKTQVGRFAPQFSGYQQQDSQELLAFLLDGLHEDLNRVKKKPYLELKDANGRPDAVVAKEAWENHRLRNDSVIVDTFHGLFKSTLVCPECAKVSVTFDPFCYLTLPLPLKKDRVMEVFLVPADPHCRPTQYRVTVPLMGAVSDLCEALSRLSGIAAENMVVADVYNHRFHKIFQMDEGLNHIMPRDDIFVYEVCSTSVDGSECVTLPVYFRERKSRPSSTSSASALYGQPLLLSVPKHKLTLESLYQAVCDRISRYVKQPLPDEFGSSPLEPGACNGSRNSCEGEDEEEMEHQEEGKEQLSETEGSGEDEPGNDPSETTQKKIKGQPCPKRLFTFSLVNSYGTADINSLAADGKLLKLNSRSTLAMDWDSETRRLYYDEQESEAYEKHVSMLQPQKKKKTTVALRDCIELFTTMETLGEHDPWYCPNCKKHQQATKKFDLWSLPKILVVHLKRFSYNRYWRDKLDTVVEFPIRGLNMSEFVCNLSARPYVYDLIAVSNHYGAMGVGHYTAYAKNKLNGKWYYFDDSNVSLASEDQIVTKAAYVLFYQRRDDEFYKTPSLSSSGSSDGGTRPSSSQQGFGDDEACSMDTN
UniProt Q16739: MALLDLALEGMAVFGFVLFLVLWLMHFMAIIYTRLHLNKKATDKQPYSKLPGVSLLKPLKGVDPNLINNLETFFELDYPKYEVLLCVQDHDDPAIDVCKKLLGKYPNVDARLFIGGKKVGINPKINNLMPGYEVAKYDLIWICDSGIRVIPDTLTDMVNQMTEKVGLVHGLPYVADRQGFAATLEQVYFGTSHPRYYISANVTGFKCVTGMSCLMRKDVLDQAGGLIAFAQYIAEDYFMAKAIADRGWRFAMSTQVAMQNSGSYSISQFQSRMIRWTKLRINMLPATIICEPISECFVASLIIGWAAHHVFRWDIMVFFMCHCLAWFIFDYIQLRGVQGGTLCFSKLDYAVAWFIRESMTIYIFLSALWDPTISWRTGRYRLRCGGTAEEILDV
UniProt Q68DE3: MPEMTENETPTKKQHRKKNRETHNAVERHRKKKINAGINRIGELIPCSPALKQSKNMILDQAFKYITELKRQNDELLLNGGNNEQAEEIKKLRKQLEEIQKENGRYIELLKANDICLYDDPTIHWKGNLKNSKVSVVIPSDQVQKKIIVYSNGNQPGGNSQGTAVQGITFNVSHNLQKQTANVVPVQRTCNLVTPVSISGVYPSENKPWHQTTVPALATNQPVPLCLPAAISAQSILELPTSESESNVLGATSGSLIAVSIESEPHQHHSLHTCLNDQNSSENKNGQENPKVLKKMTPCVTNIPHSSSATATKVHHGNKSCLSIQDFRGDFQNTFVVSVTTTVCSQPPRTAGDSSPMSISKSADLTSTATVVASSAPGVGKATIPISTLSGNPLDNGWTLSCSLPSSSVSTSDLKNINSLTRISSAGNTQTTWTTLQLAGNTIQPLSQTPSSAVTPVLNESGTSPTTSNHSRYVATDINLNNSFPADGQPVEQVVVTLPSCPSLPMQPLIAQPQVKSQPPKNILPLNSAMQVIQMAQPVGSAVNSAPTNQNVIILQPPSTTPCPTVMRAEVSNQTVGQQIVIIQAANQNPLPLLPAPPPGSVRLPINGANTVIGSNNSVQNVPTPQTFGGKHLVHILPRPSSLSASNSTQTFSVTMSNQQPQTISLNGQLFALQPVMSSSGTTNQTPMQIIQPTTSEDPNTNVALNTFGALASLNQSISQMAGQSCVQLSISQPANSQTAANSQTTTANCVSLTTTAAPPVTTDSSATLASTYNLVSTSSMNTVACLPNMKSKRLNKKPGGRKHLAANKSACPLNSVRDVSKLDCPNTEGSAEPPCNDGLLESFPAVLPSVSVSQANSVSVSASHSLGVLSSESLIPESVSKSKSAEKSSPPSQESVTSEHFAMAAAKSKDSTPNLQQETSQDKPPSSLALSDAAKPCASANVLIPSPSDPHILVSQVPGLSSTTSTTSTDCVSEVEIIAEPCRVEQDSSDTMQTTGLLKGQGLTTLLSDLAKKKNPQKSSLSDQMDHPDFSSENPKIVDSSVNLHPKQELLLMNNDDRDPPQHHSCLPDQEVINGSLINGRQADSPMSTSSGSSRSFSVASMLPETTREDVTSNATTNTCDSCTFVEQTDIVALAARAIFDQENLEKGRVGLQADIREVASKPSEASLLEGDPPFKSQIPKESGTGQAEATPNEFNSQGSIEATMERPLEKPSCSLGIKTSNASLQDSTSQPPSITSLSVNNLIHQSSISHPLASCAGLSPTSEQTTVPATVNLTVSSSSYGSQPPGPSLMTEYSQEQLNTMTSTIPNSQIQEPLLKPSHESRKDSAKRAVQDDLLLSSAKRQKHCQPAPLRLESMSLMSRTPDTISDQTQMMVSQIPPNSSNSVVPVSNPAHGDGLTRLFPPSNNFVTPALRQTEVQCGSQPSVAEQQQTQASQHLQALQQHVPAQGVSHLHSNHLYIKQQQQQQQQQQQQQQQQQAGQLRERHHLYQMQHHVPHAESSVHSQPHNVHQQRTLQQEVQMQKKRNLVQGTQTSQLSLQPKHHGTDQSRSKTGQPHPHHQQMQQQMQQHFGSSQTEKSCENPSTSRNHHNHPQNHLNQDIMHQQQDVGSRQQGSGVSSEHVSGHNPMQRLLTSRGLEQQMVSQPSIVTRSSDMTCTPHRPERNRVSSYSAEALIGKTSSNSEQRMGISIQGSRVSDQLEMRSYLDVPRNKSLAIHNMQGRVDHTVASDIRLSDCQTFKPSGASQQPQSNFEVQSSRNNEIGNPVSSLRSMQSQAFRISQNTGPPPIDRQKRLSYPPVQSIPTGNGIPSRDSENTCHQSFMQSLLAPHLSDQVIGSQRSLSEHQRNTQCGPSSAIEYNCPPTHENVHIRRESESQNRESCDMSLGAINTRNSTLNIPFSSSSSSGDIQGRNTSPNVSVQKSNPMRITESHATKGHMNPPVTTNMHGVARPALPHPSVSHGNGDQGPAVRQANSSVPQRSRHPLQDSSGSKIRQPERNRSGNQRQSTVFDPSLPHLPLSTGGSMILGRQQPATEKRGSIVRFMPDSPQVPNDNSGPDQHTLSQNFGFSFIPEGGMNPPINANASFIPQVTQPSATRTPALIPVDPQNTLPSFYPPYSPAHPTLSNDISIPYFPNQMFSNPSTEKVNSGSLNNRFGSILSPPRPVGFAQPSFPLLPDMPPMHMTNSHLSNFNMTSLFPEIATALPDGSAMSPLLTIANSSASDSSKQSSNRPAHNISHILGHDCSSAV
UniProt Q6ZT12: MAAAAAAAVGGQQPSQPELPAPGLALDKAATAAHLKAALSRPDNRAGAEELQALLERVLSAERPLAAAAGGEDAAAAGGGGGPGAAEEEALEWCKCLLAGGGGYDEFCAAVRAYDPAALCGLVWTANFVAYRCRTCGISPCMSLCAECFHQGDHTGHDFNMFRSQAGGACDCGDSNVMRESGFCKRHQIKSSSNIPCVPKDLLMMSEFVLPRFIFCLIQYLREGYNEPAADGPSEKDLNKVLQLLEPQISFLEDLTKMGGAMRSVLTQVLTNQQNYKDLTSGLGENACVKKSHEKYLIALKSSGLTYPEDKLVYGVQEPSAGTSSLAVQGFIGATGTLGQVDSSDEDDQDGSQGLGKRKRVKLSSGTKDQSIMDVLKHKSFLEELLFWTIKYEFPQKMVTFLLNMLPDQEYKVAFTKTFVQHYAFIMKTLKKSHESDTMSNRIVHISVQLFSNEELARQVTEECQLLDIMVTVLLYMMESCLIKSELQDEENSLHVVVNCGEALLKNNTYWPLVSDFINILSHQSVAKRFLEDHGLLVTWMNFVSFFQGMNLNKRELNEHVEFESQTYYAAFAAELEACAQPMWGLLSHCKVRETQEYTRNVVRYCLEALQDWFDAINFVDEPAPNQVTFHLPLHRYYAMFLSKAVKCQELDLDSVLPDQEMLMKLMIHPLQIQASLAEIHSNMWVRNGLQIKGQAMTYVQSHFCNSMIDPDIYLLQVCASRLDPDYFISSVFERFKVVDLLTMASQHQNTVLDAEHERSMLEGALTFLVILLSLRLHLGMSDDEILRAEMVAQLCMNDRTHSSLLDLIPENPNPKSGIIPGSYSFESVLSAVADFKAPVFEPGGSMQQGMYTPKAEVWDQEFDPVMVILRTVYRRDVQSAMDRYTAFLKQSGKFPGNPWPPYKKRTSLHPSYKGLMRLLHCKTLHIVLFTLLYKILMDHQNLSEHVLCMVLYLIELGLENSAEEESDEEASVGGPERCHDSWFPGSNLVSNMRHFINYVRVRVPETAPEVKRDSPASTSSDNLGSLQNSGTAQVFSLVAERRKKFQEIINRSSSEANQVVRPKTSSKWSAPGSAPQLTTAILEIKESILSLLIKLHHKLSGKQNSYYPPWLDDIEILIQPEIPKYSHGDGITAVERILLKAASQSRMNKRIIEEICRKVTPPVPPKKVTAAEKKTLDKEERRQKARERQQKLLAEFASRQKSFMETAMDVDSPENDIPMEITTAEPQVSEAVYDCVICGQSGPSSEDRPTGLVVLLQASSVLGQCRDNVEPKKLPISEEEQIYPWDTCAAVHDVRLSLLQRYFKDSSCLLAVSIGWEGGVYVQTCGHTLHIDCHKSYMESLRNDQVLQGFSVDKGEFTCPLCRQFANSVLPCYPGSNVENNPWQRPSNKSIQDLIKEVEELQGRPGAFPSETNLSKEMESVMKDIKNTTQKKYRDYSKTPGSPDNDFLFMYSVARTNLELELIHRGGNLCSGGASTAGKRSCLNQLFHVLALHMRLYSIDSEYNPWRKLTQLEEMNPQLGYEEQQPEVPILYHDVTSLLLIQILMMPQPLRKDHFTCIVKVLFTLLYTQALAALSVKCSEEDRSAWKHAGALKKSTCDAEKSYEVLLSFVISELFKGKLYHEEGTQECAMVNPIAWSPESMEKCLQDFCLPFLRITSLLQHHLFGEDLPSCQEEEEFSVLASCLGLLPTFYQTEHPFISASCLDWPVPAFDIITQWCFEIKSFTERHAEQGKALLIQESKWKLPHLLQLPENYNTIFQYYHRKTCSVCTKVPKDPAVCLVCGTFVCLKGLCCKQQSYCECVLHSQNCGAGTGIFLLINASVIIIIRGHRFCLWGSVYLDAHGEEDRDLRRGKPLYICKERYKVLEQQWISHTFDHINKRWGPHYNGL

Experiments:
Assay in all cases: log2 fold change, soluble protein after heating vs DMSO (PISA); higher = thermal stabilisation; K562 cells, 10 uM, 30 min; active = over 0.2 and 3.5 SD of the protein, either way, in both replicates (recomputed)
dasatinib = compound: Cc1nc(Nc2ncc(C(=O)Nc3c(C)cccc3Cl)s2)cc(N2CCN(CCO)CC2)n1 [dasatinib]
Procedure, shortened: (§1)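 Quantification of soluble protein used TMTpro 16plex LC-MS/MS, with channel sums equalised. Samples were the supernatant after 21,000xg for 90 min of pooled aliquots from K562 cells (2×10^6 cells/mL) treated with 10 μM compound for 30 min, heated for 3 min over 48°C-58°C, and extracted in PBS with 0.5% NP-40 at 4°C. Values, from duplicates, describe thermal stability against control samples on a log2 fold-change scale.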

mubritinib = compound: FC(F)(F)c1ccc(/C=C/c2nc(COc3ccc(CCCCn4ccnn4)cc3)co2)cc1 [mubritinib]
Procedure, shortened: as §1

bafetinib = compound: Cc1ccc(NC(=O)c2ccc(CN3CC[C@H](N(C)C)C3)c(C(F)(F)F)c2)cc1Nc1nccc(-c2cncnc2)n1 [bafetinib]
Procedure, shortened: as §1

nilotinib = compound: Cc1cn(-c2cc(NC(=O)c3ccc(C)c(Nc4nccc(-c5cccnc5)n4)c3)cc(C(F)(F)F)c2)cn1 [nilotinib]
Procedure, shortened: as §1

[1] = compound: Cc1nc(Nc2n[nH]c3c2CN(C(=O)N[C@H](CN(C)C)c2ccccc2)C3(C)C)c2sccc2n1
Procedure, shortened: as §1

[2] = compound: Cc1ncc(-c2ccnc(Nc3ccc(S(C)(=O)=O)cc3)n2)n1C(C)C
Procedure, shortened: as §1

[3] = compound: Cn1cc(-c2ccc3c(c2)CCN3C(=O)Cc2cccc(C(F)(F)F)c2)c2c(N)ncnc21
Procedure, shortened: as §1

[4] = compound: Cn1cc(-c2ccc3nnc(C(F)(F)c4ccc5ncccc5c4)n3n2)cn1
Procedure, shortened: as §1

tipifarnib = compound: Cn1cncc1[C@@](N)(c1ccc(Cl)cc1)c1ccc2c(c1)c(-c1cccc(Cl)c1)cc(=O)n2C [tipifarnib]
Procedure, shortened: as §1

[5] = compound: Cc1cccc(CC(=O)N2CCc3c2ccc(-c2cn(C)c4ncnc(N)c24)c3F)n1
Procedure, shortened: as §1

Measured: log2 fold change

UBQLN1 isoform 2 (UniProt Q9UMX0)
inactive: dasatinib -0.387 | mubritinib -0.08

USP13 (UniProt Q92995)
inactive: bafetinib -0.034 | nilotinib -0.028 | [1] -0.007 | dasatinib -0.044 | [2] 0.03 | [3] 0.114 | [4] -0.01 | tipifarnib -0.112 | mubritinib -0.002

UTP20 (UniProt O75691)
inactive: tipifarnib 0.089

ULK3 isoform 4 (UniProt Q6PHR2)
inactive: bafetinib 0.249 | [5] -0.3 | [4] 0.051 | tipifarnib 0.044

UBP1 (UniProt Q9NZI7)
inactive: bafetinib -0.014 | nilotinib 0.041 | [1] -0.045 | dasatinib -0.265 | [2] -0.003 | [3] 0.131 | [4] -0.014 | mubritinib 0.037

USP1 (UniProt O94782)
inactive: bafetinib -0.122 | nilotinib 0.03 | [1] -0.138 | [2] 0.054 | [3] 0.266 | [4] -0.072

ULBP1 (UniProt Q9BZM6)
inactive: dasatinib 0.083 | [3] 0.068 | [4] -0.11 | tipifarnib -0.097 | mubritinib 0.004

VAV1 (UniProt P15498)
inactive: [5] -0.02 | [3] -0.309 | [4] -0.108 | mubritinib 0.14

UTP23 (UniProt Q9BRU9)
inactive: nilotinib -0.095 | [1] -0.075 | dasatinib -0.072 | [2] 0.218 | [3] -0.163

UBQLN3 (UniProt Q9H347)
inactive: [5] -0.195 | nilotinib -0.438 | [1] -0.037 | dasatinib 0.183 | [2] 0.472 | [3] 0.132 | [4] 0.043 | tipifarnib 0.039 | mubritinib -0.086

UFM1 (UniProt P61960)
inactive: bafetinib 0.045 | nilotinib -0.011 | [1] 0.025 | dasatinib -0.012 | [2] 0.026 | [3] 0.008 | [4] 0.007 | tipifarnib -0.061 | mubritinib 0.087

USP12 (UniProt O75317)
inactive: [5] -0.091 | dasatinib 0.023 | [3] 0.016 | [4] -0.008 | mubritinib -0.3

VAMP3 (UniProt Q15836)
inactive: bafetinib -0.075 | nilotinib 0.009 | [1] 0.039 | [2] 0.048 | [3] -0.036 | mubritinib -0.003

UQCR11 (UniProt O14957)
inactive: [5] -0.08 | nilotinib -0.115 | [1] 0.094 | [2] 0.024 | [4] 0.002 | mubritinib 0.074

USP27X (UniProt A6NNY8)
inactive: dasatinib 0.03 | [3] -0.353 | [4] -0.168

USP4 (UniProt Q13107)
inactive: dasatinib -0.002

USP48 (UniProt Q86UV5)
inactive: bafetinib 0.045 | nilotinib -0.294 | [1] -0.495 | [2] -0.016 | mubritinib 0.117

USP11 (UniProt P51784)
inactive: [5] 0.073 | dasatinib 0.131 | [3] -0.174 | [4] -0.128 | tipifarnib 0.115 | mubritinib -0.104

UGCG (UniProt Q16739)
inactive: bafetinib -0.003 | dasatinib -0.044 | [3] -0.015 | [4] -0.157 | tipifarnib 0.006 | mubritinib -0.003

UNC5B (UniProt Q8IZJ1)
inactive: dasatinib -0.013

URB2 (UniProt Q14146)
inactive: bafetinib 0.062 | nilotinib -0.186 | [1] 0.04 | [2] 0.255 | [3] -0.087

USP6NL isoform 2 (UniProt Q92738)
inactive: nilotinib 0.025 | [1] -0.023 | dasatinib -0.007 | [2] -0.068 | [3] -0.278 | [4] -0.126 | tipifarnib 0.032

USB1 (UniProt Q9BQ65)
inactive: [5] 0.143 | [3] 0.031 | tipifarnib 0.012

Retrieved one by one from the entries so far, 2 records:
UNC5B (UniProt Q8IZJ1)
inactive: dasatinib -0.013

USB1 (UniProt Q9BQ65)
inactive: [5] 0.143 | [3] 0.031 | tipifarnib 0.012

The list continues.

USP20 (UniProt Q9Y2K6)
inactive: bafetinib -0.023 | nilotinib -0.283 | [1] -0.182 | dasatinib -0.132 | [2] 0.12 | [3] -0.249 | [4] -0.136 | tipifarnib -0.045 | mubritinib 0.042

USP33 (UniProt Q8TEY7)
inactive: dasatinib -0.257 | [4] -0.146

UGP2 (UniProt C9JWG0)
inactive: bafetinib -0.145 | nilotinib -0.225 | [1] -0.141 | [2] 0.079 | mubritinib -0.003

USF3 (UniProt Q68DE3)
inactive: bafetinib 0.055 | [4] -0.096 | tipifarnib 0.28 | mubritinib 0.155

USP22 (UniProt Q9UPT9)
inactive: bafetinib -0.035 | nilotinib -0.055 | [1] 0.081 | dasatinib -0.074 | [2] -0.095 | [3] 0.171 | tipifarnib -0.187 | mubritinib 0.098

UCHL1 (UniProt P09936)
inactive: [5] -0.017

UBR3 isoform 4 (UniProt Q6ZT12)
inactive: bafetinib -0.042 | dasatinib -0.213 | [3] 0.021 | tipifarnib 0.054

USP46 (UniProt P62068)
inactive: tipifarnib -0.022

UCHL5 isoform 3 (UniProt Q9Y5K5)
inactive: bafetinib 0.151 | nilotinib -0.104 | [1] 0.076 | [2] -0.08 | [3] -0.052 | [4] -0.064 | tipifarnib -0.085 | mubritinib 0.049

ULBP2 (UniProt Q9BZM5)
inactive: nilotinib 0.137 | [1] -0.166 | [2] -0.025 | [3] -0.089 | [4] 0 | tipifarnib -0.151 | mubritinib -0.015

UXS1 isoform 2 (UniProt Q8NBZ7)
inactive: bafetinib 0.005 | nilotinib 0.003 | [1] 0.055 | dasatinib 0.022 | [2] -0.045 | [3] -0.101 | [4] -0.109 | tipifarnib 0.06 | mubritinib 0.003

VCPIP1 (UniProt Q96JH7)
inactive: [5] -0.241

USP30 (UniProt Q70CQ3)
inactive: bafetinib 0.065 | nilotinib -0.071 | [1] -0.059 | dasatinib -0.108 | [2] 0.074 | [3] -0.116 | [4] 0.332 | tipifarnib 0.023 | mubritinib 0.193
